The values below come from publication doi:10.1101/2021.03.26.437179 (bioRxiv, 2021).

These are yes or no findings as the source states them, for the method shown. In cells and extracts the contact can be indirect. A yes stands for co-enrichment or nearness to the bait. Other partners may have been found.

In the assay the target is VDAL-MYC (Verticillium dahliae). The assay can be described thus: affinity purification with mass spectrometry.

B1: PUB26 (endogenous) (enzyme, UniProt Q9FXA4 1-421)
chain: MPGNLEPLDLGIQIPYHFRCPISLDLMSDPVTISTGQTYDRTSIDSWIAMGNTTCPVTRVALSDFTLIPNHTLRRLIQEWCVANRSNGVERIPTPKQPADPISVRSLLSQASAITGTHVSVRSRAAAIRRLRGLARDSEKNRVLIAGHNAREILVRILFADIETTSLSSELVSESLALLVLLHMTETECEAVASDPSRVGFMTRLLFDSSIEIRVNAAALIEMVLTGAKSMDLKLIISGSDSIFEGVLDLLKNPISSRRALKIGIKAIFALCLVKQTRHLAISAGAPGILIDRLAADFDRCDTERGLATVELLCRLPEGCAAFGEHALTVPLMVKTILRVSDRATEYAAGALLALCTAEERCRDEAAAAGLVTQLLLLVQSDCTERAKRKAQMLLKLLRDSWPDDSTVHSDDFNRSEVAPF
Turning to B1, the binding entry is “binds”.
